PubChem BioAssay AID1224826 – NIAID – 2016

Assay: 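Knock-downs that raise or lower Tnf reporter signal after endotoxin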 (primary screen)
Cells: RAW264.7 G9 macrophages from mouse bearing reporters for p65 (GFP) and the Tnf promoter (mCherry)
Knock-down reagent: siRNA pool against mouse genes, 100 nM
Time to read-out: 16 h of LPS stimulation, after 2 days of siRNA transfection
Treatment: bacterial lipopolysaccharide (Salmonella minnesota R595), 10 ng/ml
Detection: 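Nuclear mCherry signal of the Tnf promoter reporter measured by imaging after background removal, scaled to each plate median and turned into robust z-scores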
Reading the numbers: Tnf reporter robust z-score: higher = stronger Tnf promoter reporter signal after LPS; Tnf reporter intensity: higher = stronger Tnf promoter reporter signal
Hit rule: 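Called active when robust z-score is at most -1.3, matching the median of the Tlr4 knock-down control, or over 3; control wells and wells with under 50 cells never active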
Calls: active = Tnf reporter clearly lowered or raised; inactive = no clear change in Tnf reporter
In all, the deposit lists about 17,000 reagents; this is a random part of them. In the full data, about 1,110 (6.6%) were called active. 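Active means lowered or raised reporter signal; replicate intensities are raw and not normalised per plate.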 A number with no mark means an inactive call.

| target gene | Tnf reporter robust z-score | fewer than 50 cells in well | Tnf reporter intensity, replicate 1 | Tnf reporter intensity, replicate 2 |
| --- | --- | --- | --- | --- |
| Nek2 | 1.6 | enough cells in well | 349 | 203 |
| Mettl24 | -0.75 | enough cells in well | 143 | 132 |
| Cdcp3 | 0.57 | enough cells in well | 234 | 154 |
| Ctr9 | -1.07 | enough cells in well | 74.7 | 54.1 |
| Ift172 | -0.39 | enough cells in well | 165 | 115 |
| Prkra | 1.32 | enough cells in well | 301 | 216 |
| Dhx58 | 0.92 | enough cells in well | 217 | 256 |
| Pak1ip1 | 0.73 | enough cells in well | 155 | 193 |
| Or52z12 | – | fewer than 50 cells per well; well left out of calls | 68.2 | 183 |
| Camp | -0.13 | enough cells in well | 141 | 151 |
| Nudt16 | – | fewer than 50 cells per well; well left out of calls | 307 | 76 |
| Otos | -0.56 | enough cells in well | 95.1 | 131 |
| Smim11 | – | fewer than 50 cells per well; well left out of calls | 308 | 124 |
| Tsga13 | -0.3 | enough cells in well | 109 | 77.9 |
| Phlda2 | -0.16 | enough cells in well | 230 | 184 |
| Or8g53 | – | fewer than 50 cells per well; well left out of calls | 149 | 168 |
| Muc5b | 0.37 | enough cells in well | 240 | 127 |

Just “Tnf reporter intensity, replicate 2” (2 entries from above):
Tsga13 = 77.9
Phlda2 = 184

The listing continues:
| target gene | Tnf reporter robust z-score | fewer than 50 cells in well | Tnf reporter intensity, replicate 1 | Tnf reporter intensity, replicate 2 |
| --- | --- | --- | --- | --- |
| Usp44 | 1.27 | enough cells in well | 238 | 183 |
| Rnf213 | -0.56 | enough cells in well | 134 | 159 |
| P4htm | -0.67 | enough cells in well | 73.7 | 122 |
| Anxa4 | -0.62 | enough cells in well | 131 | 137 |
| Gmeb1 | -0.47 | enough cells in well | 189 | 169 |
| Dync1li1 | -1.88 (active) | enough cells in well | 79.5 | 34.7 |
| Kdm4d | – | fewer than 50 cells per well; well left out of calls | 146 | 50.3 |
| Slx4 | – | fewer than 50 cells per well; well left out of calls | 86.9 | 48.9 |
| Ube2z | 0.54 | enough cells in well | 284 | 257 |
| Nktr | -0.98 | enough cells in well | 172 | 113 |
| Scg5 | 0.54 | enough cells in well | 311 | 271 |
| Csnk1e | -0.76 | enough cells in well | 149 | 92.6 |
| Msantd3 | 1.17 | enough cells in well | 271 | 181 |
| Card14 | 0.94 | enough cells in well | 288 | 208 |
| Ube2m | -0.04 | enough cells in well | 222 | 231 |
| Sertad1 | 0.49 | enough cells in well | 336 | 242 |
| Myh4 | -0.29 | enough cells in well | 281 | 150 |
| Sephs1 | 0.04 | enough cells in well | 164 | 195 |
| Psmb8 | – | fewer than 50 cells per well; well left out of calls | 85.6 | 89.3 |
| Bpifb2 | 1.95 | enough cells in well | 54.3 | 275 |
| Dctn3 | 0.27 | enough cells in well | 218 | 260 |
| Ctnnbip1 | -0.3 | enough cells in well | 242 | 168 |
| Sfpq | -1.23 | enough cells in well | 158 | 131 |
